# Assay results published in patent US20100234238A1, “METHOD FOR PROFILING KINASE INHIBITORS” (Janssen Pharmaceutica N V, priority 2006, published 2010).
# This continues a long series; more values of the same kind are listed elsewhere.
# Tested on: tyrosine kinase activity in xenograft tumor lysates
# Assay: PAMCHIP96 (140-peptide array) profiling of xenograft tumor lysates in absence or presence of MTKI
# Type: biochemical
# Conditions: 5 μM
# Description: 100 mg of frozen tumor or tissue blocks, or sections, are lysed in 1 ml of M-PER buffer (PIERCE) containing phosphatase and protease inhibitors (HALT, PIERCE). The suspension is mixed using a ULTRA-TURRAX blender (IKA werke), and centrifuged twice for 10 minutes at 12 000×g. Supernatant lysates are filtered through a 0.2 micrometer filter (Anotop 0.2 μm anopore filter; Whatmann). Lysates are flash frozen in liquid nitrogen and stored at −80C.
# Just prior to the PAMCHIP experiment, total protein content is quantitated in the lysates and lysates are diluted to 1 mg/ml in a total volume of 200 μl, with M-PER phosphatase and protease inhibitors (HALT, PIERCE). 10 μg of total lysate (corresponding to 10 μl) will be used per well on the PAMCHIP96.
# To all 200 μl lysates 10 units of benzonase (Novagen) is added and lysates are further incubated for 30 min on ice and next centrifuged for 10 minutes at 12 000×g. The supernatant is then 1:1 diluted with compound or DMSO diluted to the appropriate concentration in water, and lysates are further incubated exactly 60 min on ice. Meanwhile, a PAMCHIP96 tyrosine peptide chip (PAMGENE) is blocked with 2% BSA (filtered through a 0.2 μm anopore filter; Whatmann) using the standard setting of a PAMSTATION96 (PAMGENE).
# The composition of the kinase buffer is as follows: 1×ABL buffer (NEB), 0.5 mg/ml BSA (from 10 mg/ml NEB stock), 100 μM ATP (dissolved and diluted in 1×ABL buffer), 5 μg/ml PY20-FITC (ExAlpha Biologicals, azide-free preparation). A twofold concentrated kinase buffer is prepared chilled on ice, DMSO or compound is added as appropriate, and the solution is added 1:1 to the (compound treated) ice cold lysates, and immediately applied to a tyrosine peptide PAMCHIP96. The assay is run on a PAMSTATION96 according to standard procedures: after loading of the plate, solution is pumped once onto the wells, a first exposure is read (150 mSec) and then a kinetic reading program (reading every 5 min for 150 mSec) is run for 60 min. Lysates are run in 6 technical replicates for each condition; replicates are always applied horizontally next to each other to avoid vertical strip effects of the chip.
# The data (spot images) are further quantified and linked to the peptide identities using EVOLVE PAMGRID software (PAMGENE). The quantified data are then fit to a curve using CurveFitHT software (PAMGENE) using the Vinip2 curve fitting algorithm, applied on the first 30 min of the assay; the initial velocity is derived at the first kinetic time point read. All subsequent data analyses were done on initial velocities (Vini) using the software packages Omniviz and R (Ihaka, R. and Gentlemen, R. (1996) R: a language for data analysis and graphics. J. Comput. Graph. Stat., 5, 299-314).
# After replacing the Vini's lower than 0.1 by 0.1, all Vini's were log 2-transformed to approach normality. […] This test was done for each peptide separately using a mixed model (Littell, R. C., Milliken, G. A., Stroup, W. W., Wolfinger, R. D. 1996. SAS system for mixed models. Cary, N. C.: SAS Institute Inc.) allowing the incorporation of both technical variation (i.e., the variation across replicates) and biological variation (i.e., the variation among the various responding and non-responding cell lines or tumors). Variation between cell lines or tumors in Vini and in treatment effect on Vini was modeled respectively by random intercepts and random compound effects per cell line or tumor, nested in response status. The difference in compound-induced reduction in Vini between responding and non-responding cell lines or tumors was tested through the interaction between compound treatment and response status, both modeled as fixed effects.
structure (smiles),measurement,setting,value
"COc1cc2ncnc3c2cc1OCCCCCN(C)Cc1ccc(Br)cc1N3 [MTKI, 4,6-ethanediylidenepyrimido[4,5-b][6,1,12]benzoxadiazacyclopentadecine, 17-bromo-8,9,10,11,12,13,14,19-octahydro-20-methoxy-13-methyl-]",ratio of initial velocity of peptide phosphorylation,"A431 xenograft tumor lysate, CREB1_122_134_Y134/S133",0.67
same,ratio of initial velocity of peptide phosphorylation,"A431 xenograft tumor lysate, DDR1_785_797_Y792/Y796/Y797",0.58
same,ratio of initial velocity of peptide phosphorylation,"A431 xenograft tumor lysate, DYR1A_212_224_Y219",0.03
same,ratio of initial velocity of peptide phosphorylation,"A431 xenograft tumor lysate, EPHA4_589_601_Y596",0.51
same,ratio of initial velocity of peptide phosphorylation,"BT474 xenograft tumor lysate, CDK7_157_169_S164",0.88
same,ratio of initial velocity of peptide phosphorylation,"BT474 xenograft tumor lysate, CREB1_122_134_Y134/S133",1.02
same,ratio of initial velocity of peptide phosphorylation,"BT474 xenograft tumor lysate, DDR1_785_797_Y792/Y796/Y797",0.94
same,ratio of initial velocity of peptide phosphorylation,"BT474 xenograft tumor lysate, DYR1A_212_224_Y219",0.07
same,ratio of initial velocity of peptide phosphorylation,"BT474 xenograft tumor lysate, EPHA4_589_601_Y596",0.79
same,ratio of initial velocity of peptide phosphorylation,"DU145 xenograft tumor lysate, CREB1_122_134_Y134/S133",0.93
same,ratio of initial velocity of peptide phosphorylation,"DU145 xenograft tumor lysate, DDR1_785_797_Y792/Y796/Y797",0.64
same,ratio of initial velocity of peptide phosphorylation,"DU145 xenograft tumor lysate, DYR1A_212_224_Y219",0.90
same,ratio of initial velocity of peptide phosphorylation,"DU145 xenograft tumor lysate, EPHA4_589_601_Y596",0.77
same,ratio of initial velocity of peptide phosphorylation,"H322 xenograft tumor lysate, CREB1_122_134_Y134/S133",0.80
same,ratio of initial velocity of peptide phosphorylation,"H322 xenograft tumor lysate, DDR1_785_797_Y792/Y796/Y797",0.71
same,ratio of initial velocity of peptide phosphorylation,"H322 xenograft tumor lysate, DYR1A_212_224_Y219",0.59
same,ratio of initial velocity of peptide phosphorylation,"H322 xenograft tumor lysate, EPHA4_589_601_Y596",0.63
same,ratio of initial velocity of peptide phosphorylation,"H3255 xenograft tumor lysate, CREB1_122_134_Y134/S133",0.61
same,ratio of initial velocity of peptide phosphorylation,"H3255 xenograft tumor lysate, DDR1_785_797_Y792/Y796/Y797",0.48
same,ratio of initial velocity of peptide phosphorylation,"H3255 xenograft tumor lysate, DYR1A_212_224_Y219",0.62
same,ratio of initial velocity of peptide phosphorylation,"H3255 xenograft tumor lysate, EPHA4_589_601_Y596",0.44
same,ratio of initial velocity of peptide phosphorylation,"SUM149 xenograft tumor lysate, CDK7_157_169_S164",0.93
same,ratio of initial velocity of peptide phosphorylation,"SUM149 xenograft tumor lysate, CREB1_122_134_Y134/S133",1.02
same,ratio of initial velocity of peptide phosphorylation,"SUM149 xenograft tumor lysate, DDR1_785_797_Y792/Y796/Y797",0.88
same,ratio of initial velocity of peptide phosphorylation,"SUM149 xenograft tumor lysate, DYR1A_212_224_Y219",0.10
same,ratio of initial velocity of peptide phosphorylation,"SUM149 xenograft tumor lysate, EPHA4_589_601_Y596",1.03
